Test results taken from patent US20120309676A1, “Lantibiotic Salts” (priority 2010, published 2012).
Some results were stated once for a whole list of compounds, not compound by compound. For at least one compound, name, drawing or mass did not settle the structure.

System: MRSA
Experiment: Activity against MRSA by standard test (MIC), background statements
Type: cell-based, Staphylococcus aureus
Conditions: for increase in activity over the parent actagardine or deoxyactagardine B compounds: MRSA, such as a 4 or 8 fold; for activity against one or more strains of MRSA: such as 4 or 2 μg/mL

| Compound | increase in activity over the parent actagardine or deoxyactagardine B compounds | activity against one or more strains of MRSA |
| --- | --- | --- |
| CCC(C)[C@@H]1NC(=O)[C@@H]2NC(=O)[C@H](CC(C)C)NC(=O)[C@H](NC(=O)[C@H]3CSC[C@H](N)C(=O)N[C@@H](CO)C(=O)NCC(=O)N[C@@H](Cc4c[nH]c5ccccc45)C(=O)N[C@@H](C(C)C)C(=O)N3)[C@H](C)SC[C@H](NC(=O)[C@H](CCC(=O)O)NC1=O)C(=O)NCC(=O)N[C@@H]1C(=O)N[C@@H](CC(C)C)C(=O)N[C@@H](C(C)C)C(=O)N[C@@H](CS[C@H]2C)C(=O)N[C@@H](C)C(=O)N[C@H](C(=O)NCc2cc(Cl)cc(Cl)c2)CS[C@H]1C (stereo partly shown) [Compound 1, Deoxyactagardine B (3,5-dichlorobenzylamine) monocarboxamide] | ≥ 2 fold | ≤ 8 µg/mL |
| actagardine (3,5-dichlorobenzylamine) monocarboxamide | ≥ 2 fold | ≤ 8 µg/mL |
